From article PMC12454627
No constants are given. Whether binding was seen depends on the method and setting. Binding seen in cells or lysates may run through a third protein. Some entries that bind do so weakly or less than the wild type.

Molecular target: Hsp90AA1 (human (endogenous in HL60-ADR)) (UniProt P07900)
Experiment: co-IP; whole HL60-ADR cell lysate immunoprecipitated with anti-Hsp90AA1 antibody and protein A/G beads overnight at 4°C, western blot; lysis buffer 20 mM Tris-HCl pH 7.4, 0.5 M NaCl, 1% NP-40, 5 mM EDTA, 1 mM DTT; control or AC021683.2-knockdown cells, with or without 5 μM Ara-C for 48 h; normal IgG as negative control

binding: binds
Substance: BCL-2-associated transcription factor 1 (BCLAF1) (from UniProt Q9NYF8 1-920)
